# Measurements published in PubChem BioAssay AID504834 (National Center for Advancing Translational Sciences (NCATS), 2011).
# Hit rate of the full screen: of about 320,000 compounds, about 22,000 (6.9%) were called active. Inconclusive results, whose numbers are uncertain, are shown with a selection of clear calls. Calls come from the whole dose curve; as a rule, active = well fitted inhibition curve with a large enough effect; inconclusive = small, poorly fitted or top-dose-only effect, or another doubt; inactive = no such curve, though single readings can be large or run the other way. Potencies beside an inconclusive call are fits to weak or partial responses and may not hold up.
# Assay: Primary qHTS for delayed death inhibitors of the malarial parasite plastid, 96 hour incubation
# Details: P. falciparum luciferase reporter growth; series mostly up to 28.7 µM
# Procedure, shortened: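 Erythrocytes infected with luciferase-expressing P. falciparum were dispensed at 2% hematocrit and 0.05% parasitemia (final), then incubated with compounds 96 hours at 37 C in 5% CO2. Luminescence after detection reagent addition reported growth.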
# Potency is the fitted concentration of half-maximal effect.
row,SMILES,Potency
1,O=C(CCCc1nc(-c2ccc(Cl)cc2)no1)N1CCOCC1,"inconclusive: 9.28 µM [inhibitor, single point]"
2,Cc1c(C#N)c(N=CN(C)C)c(C(=O)c2ccccc2)n1-c1ccccc1,"inconclusive: 4.15 µM [inhibitor, single point]"
3,Cc1cc2c(cc1S(=O)(=O)Nc1c(C)cccc1C)n(C)c(=O)c(=O)n2C,inactive
4,COc1ccc(CNC(=O)c2nccnc2CO)cc1,active: 8.28 µM
5,O=[N+]([O-])c1ccc(Cl)c(/C=N/n2c(COc3ccccc3)n[nH]c2=S)c1,"inconclusive: 2.33 µM [inhibitor, single point]"
6,COc1cc2c(cc1/C=C1/NC(=O)N(c3ccccc3)C1=O)OCO2,"inconclusive: 18.5 µM [inhibitor, single point]"
7,S=C1NNC2(CC3CC2C2CCCC32)NN1 (configuration not stated),inactive
8,Cn1c(C(=O)N2CCN(Cc3ccc4c(c3)OCO4)CC2)cc2sccc21,active: 10.4 µM
9,COC(=O)c1cc(S(=O)(=O)NCC2CCN(CCc3cccs3)CC2)c[nH]1,"inconclusive: 18.5 µM [inhibitor, single point]"
10,O=C(Nc1ccon1)Nc1ccc(Cl)cc1Cl,inactive
11,Cc1cc(=O)n2nc(N3CCC(C(=O)N4CCN(Cc5ccccc5)CC4)CC3)sc2n1,"inconclusive: 0.233 µM [inhibitor, full curve, poor fit]"
12,O=C(CCc1ccccn1)N1CCCC(CNS(=O)(=O)c2cccs2)C1 (configuration not stated),"inconclusive: 11.7 µM [inhibitor, partial curve]"
13,O=C(O)c1cccc(N2C(=O)c3cccc(Oc4ccc(Cl)cc4)c3C2=O)c1,"inconclusive: 4.15 µM [inhibitor, single point]"
14,O=C1NCCN1CCNS(=O)(=O)c1ccc2ccccc2c1,inactive
15,CC1(C)CC(=O)c2c(nc3ccccc3c2N)C1,"inconclusive: 11.7 µM [inhibitor, partial curve, poor fit]"
16,CCOc1ccc(S(=O)(=O)N(C)CC(=O)N2CCN(CC)CC2)cc1,inactive
17,COc1cccc(NC(=O)c2ccc(CN3CCOCC3)cc2)c1,inactive
18,CCOc1ccc(OCCC(=O)N(CC)CC(=O)NCc2ccc(Cl)cc2)cc1,inactive
19,O=C(NCc1ccon1)C1CCC(=O)N(CCc2ccc(Cl)cc2)C1 (configuration not stated),"inconclusive: 20.8 µM [inhibitor, partial curve, poor fit]"
20,COC(=O)CNC(=O)C1CCN(S(=O)(=O)c2cccc3nsnc23)CC1,active: 13.1 µM
21,O=C(CCNS(=O)(=O)c1ccc(Br)s1)NCc1ccccc1Cl,inactive
22,Cc1c(NS(=O)(=O)c2ccc(N3CCCCC3)c([N+](=O)[O-])c2)c(=O)n(-c2ccccc2)n1C,inactive
23,CC(=O)c1ccc(N2CCN(Cc3nc(Cc4ccccc4)no3)CC2)cc1,"inconclusive: 18.5 µM [inhibitor, single point]"
24,NS(=O)(=O)c1ccc(-c2c(-c3ccccc3)sc3ccccc23)cc1,inactive

row,SMILES,Potency
1,COc1ccc(Nc2cc(Nc3cccc(OC)c3)ncn2)cc1,"inconclusive: 11.7 µM [inhibitor, partial curve]"
2,Cc1cccc(OCCCn2c(=O)oc3ccc(C)cc32)c1,"inconclusive: 2.08 µM [inhibitor, full curve]"
3,CC(=O)Nc1ccc(S(=O)(=O)Oc2ccc(/C=C3\SC(N)=NC3=O)cc2)cc1,inactive
4,CCCc1nnc(NC(=O)CCC(=O)NCc2ccccc2Cl)s1,"inconclusive: 4.65 µM [inhibitor, partial curve]"
5,Cc1c(NS(=O)(=O)c2ccc(Cl)c(C(=O)OCC(=O)NCc3ccco3)c2)c(=O)n(-c2ccccc2)n1C,inactive
6,CCOc1ccc(N2C(=O)CC(N3CCN(C(=O)c4ccco4)CC3)C2=O)cc1 (configuration not stated),inactive
7,CS(=O)(=O)N1CCN(c2ccccc2[N+](=O)[O-])CC1,inactive
8,COc1ccccc1NC(=O)Nc1nnc(CC(=O)Nc2cccc(C)c2)s1,"inconclusive: 4.15 µM [inhibitor, single point]"
9,COc1ccc(CCNC(=O)CSc2nc3c(c(=O)n(C)c(=O)n3C)n2C)cc1OC,"inconclusive: 10.4 µM [inhibitor, partial curve, poor fit]"
10,Oc1ccc(/C=N/n2c(-c3ccco3)csc2=Nc2cccnc2)c(O)c1,"inconclusive: 11.7 µM [inhibitor, single point]"
11,CCOc1ccc(CN2C(=O)c3ccccc3C2C(=O)NC(C)CC)cc1OC (configuration not stated),inactive
12,CN(C)c1ccc(/C=C/C(O)=C2/C(=O)N(C)C3(C)CC2c2ccccc2O3)cc1 (configuration not stated),"inconclusive: 4.65 µM [inhibitor, partial curve, poor fit]"
13,NC(=O)c1c(NC(=O)C2CC=CCC2C(=O)O)sc2c1CCCCC2 (configuration not stated),"inconclusive: 14.7 µM [inhibitor, single point]"
14,COc1cccc2cc(C(=O)NCc3ccco3)c(=Nc3ccc(C(=O)O)cc3)oc12,"inconclusive: 11.7 µM [inhibitor, single point]"
16,COc1ccc(C(=O)O)cc1Nc1cc(C)nc2ncnn12,"inconclusive: 11.7 µM [inhibitor, partial curve, poor fit]"
17,COc1ccc(-n2c(-c3ccc(Br)cc3)c[n+]3c2CCC3)cc1,"inconclusive: 0.0033 µM [inhibitor, full curve, poor fit]"
18,Cc1cc(C(=O)Nc2ccc(N3CCCC3)c(Cl)c2)ccc1[N+](=O)[O-],active: 9.28 µM
19,c1ccc(CCNc2nc(-c3ccncc3)nc3ccccc23)cc1,"inconclusive: 5.86 µM [inhibitor, partial curve, poor fit]"
20,Clc1ccc2c(c1)C(c1ccccc1Cl)=NCc1nncn1-2,"inconclusive: 16.5 µM [inhibitor, single point]"
21,O=C(NCCN1CCCC1)c1ccccc1Cl,inactive
22,Cc1ccc(NC(=O)C(=S)NCc2ccco2)cc1,inactive
23,O=C1c2ccccc2C(Nc2ccc3c(c2)OCCO3)N1Cc1ccco1 (configuration not stated),active: 4.65 µM
24,CC(=O)N1CCN(C(=O)c2ccc(Cl)c(S(=O)(=O)N3CCc4ccccc43)c2)CC1,"inconclusive: 9.28 µM [inhibitor, single point]"

row,SMILES,Potency
1,COC(=O)C1CCC(C)(C(=O)Nc2ccccc2)C1(C)C (configuration not stated),"inconclusive: 2.33 µM [inhibitor, partial curve, poor fit]"
2,COc1ccccc1CNC(=O)C(c1ccccc1)c1ccccc1,"inconclusive: 11.7 µM [inhibitor, single point]"
3,CC(C)=C1C2CCC1C(C(=O)NCCc1ccccc1)C2C(=O)O (configuration not stated),"inconclusive: 10.4 µM [inhibitor, single point]"
4,Cc1csc(=O)n1CCC(=O)OCC(=O)Nc1cc([N+](=O)[O-])ccc1Cl,inactive
5,COc1ccccc1N(CC(=O)N/N=C/c1ccc(SC)cc1)S(C)(=O)=O,"inconclusive: 11.7 µM [inhibitor, partial curve]"
6,c1ccc(-c2nnc(SCCC3OCCCO3)o2)cc1,inactive
7,CCOC(=O)CSc1nnc(Cc2ccccc2)n1-c1cccc(Cl)c1,"inconclusive: 11.7 µM [inhibitor, single point]"
8,Cc1ccc(NC(=O)C(=Cc2ccc(C(=O)O)cc2)C(=O)Nc2ccc(C)cc2C)c(C)c1,"inconclusive: 1.85 µM [inhibitor, full curve, poor fit]"
9,Cc1ccc(NC(=O)CNCc2cccs2)cc1Br,inactive
10,CC1N(C(=O)N(C)C)CCN1S(=O)(=O)c1ccccc1 (configuration not stated),inactive
11,O=C(NC12CC3CC(CC(C3)C1)C2)c1ccc(Br)o1,"inconclusive: 8.28 µM [inhibitor, partial curve, poor fit]"
12,CC(=O)OC1CCC2(/C=N/O)C(=CCC3C4CCC(=O)C4(C)CCC32)C1 (configuration not stated),inactive
13,COc1cccc(C(=O)/C=C2\NCCc3cc(OC)c(OC)cc32)c1,"inconclusive: 9.28 µM [inhibitor, partial curve, poor fit]"
14,Cc1cccc(NC(=O)c2cc3n(n2)C(C(F)(F)F)CC(c2ccc4c(c2)OCO4)N3)c1 (configuration not stated),"inconclusive: 9.28 µM [inhibitor, single point]"
15,COCCn1nnnc1C(c1cccc(C(F)(F)F)c1)N1CCOCC1 (configuration not stated),"inconclusive: 11.7 µM [inhibitor, single point]"
16,COC(=O)c1ccccc1NC(=O)CSc1ccc(C)cc1,inactive
17,CN1/C(=C\C=C(C#N)C#N)C(C)(C)c2ccccc21,"inconclusive: 11.7 µM [inhibitor, single point]"
18,COc1ccc(CNC(=O)c2cccc(S(=O)(=O)N3CCCCC3)c2)cc1OC,"inconclusive: 10.4 µM [inhibitor, single point]"
19,CCn1cc(CN2CCc3c([nH]c4ccccc34)C2c2cccc(OC)c2)c(C)n1 (configuration not stated),"inconclusive: 18.5 µM [inhibitor, single point]"
20,CCc1cccc(OCC(=O)Nc2ccc(C(=O)O)cc2NC(=O)COc2cccc(CC)c2)c1,"inconclusive: 1.47 µM [inhibitor, partial curve]"
21,N#Cc1nc(COc2ccc(Br)cc2)oc1N1CCCC1,"inconclusive: 14.7 µM [inhibitor, single point]"
22,C=CCC1C=C(C)CC(CC=C)N1 (configuration not stated),"inconclusive: 9.28 µM [inhibitor, single point]"
23,COc1nc(N(C)C)nc(N(C#N)S(=O)(=O)c2ccc(C)cc2)n1,inactive
24,CCOc1cccc2sc(N(CCCN(C)C)C(=O)c3ccc(S(=O)(=O)N(C)c4ccccc4)cc3)nc12,"inconclusive: 14.7 µM [inhibitor, single point]"

# Not a retest: five of the compounds above.
row,SMILES,Potency
2,Cc1cccc(OCCCn2c(=O)oc3ccc(C)cc32)c1,"inconclusive: 2.08 µM [inhibitor, full curve]"
3,CC(=O)Nc1ccc(S(=O)(=O)Oc2ccc(/C=C3\SC(N)=NC3=O)cc2)cc1,inactive
4,CCCc1nnc(NC(=O)CCC(=O)NCc2ccccc2Cl)s1,"inconclusive: 4.65 µM [inhibitor, partial curve]"
5,Cc1c(NS(=O)(=O)c2ccc(Cl)c(C(=O)OCC(=O)NCc3ccco3)c2)c(=O)n(-c2ccccc2)n1C,inactive
6,CCOc1ccc(N2C(=O)CC(N3CCN(C(=O)c4ccco4)CC3)C2=O)cc1 (configuration not stated),inactive
